Consider five substances from PMC10858942.

By UniProt entry, the sequences of proteins in these tests, tags left out. Residues count along the entry.
UniProt P05091, residues 18-517: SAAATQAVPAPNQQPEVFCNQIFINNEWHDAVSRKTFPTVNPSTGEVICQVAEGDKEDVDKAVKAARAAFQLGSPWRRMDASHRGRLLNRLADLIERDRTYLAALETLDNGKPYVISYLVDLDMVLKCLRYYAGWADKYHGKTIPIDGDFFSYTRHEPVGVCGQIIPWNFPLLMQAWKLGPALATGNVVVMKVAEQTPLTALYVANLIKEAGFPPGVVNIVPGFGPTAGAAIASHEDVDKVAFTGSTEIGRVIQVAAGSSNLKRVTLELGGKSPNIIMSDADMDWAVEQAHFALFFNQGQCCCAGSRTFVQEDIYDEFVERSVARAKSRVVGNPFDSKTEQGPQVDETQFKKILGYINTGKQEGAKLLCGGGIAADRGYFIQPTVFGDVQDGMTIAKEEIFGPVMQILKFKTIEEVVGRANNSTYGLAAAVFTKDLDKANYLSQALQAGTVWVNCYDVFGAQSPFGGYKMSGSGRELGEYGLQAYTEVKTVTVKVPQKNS
UniProt P20700: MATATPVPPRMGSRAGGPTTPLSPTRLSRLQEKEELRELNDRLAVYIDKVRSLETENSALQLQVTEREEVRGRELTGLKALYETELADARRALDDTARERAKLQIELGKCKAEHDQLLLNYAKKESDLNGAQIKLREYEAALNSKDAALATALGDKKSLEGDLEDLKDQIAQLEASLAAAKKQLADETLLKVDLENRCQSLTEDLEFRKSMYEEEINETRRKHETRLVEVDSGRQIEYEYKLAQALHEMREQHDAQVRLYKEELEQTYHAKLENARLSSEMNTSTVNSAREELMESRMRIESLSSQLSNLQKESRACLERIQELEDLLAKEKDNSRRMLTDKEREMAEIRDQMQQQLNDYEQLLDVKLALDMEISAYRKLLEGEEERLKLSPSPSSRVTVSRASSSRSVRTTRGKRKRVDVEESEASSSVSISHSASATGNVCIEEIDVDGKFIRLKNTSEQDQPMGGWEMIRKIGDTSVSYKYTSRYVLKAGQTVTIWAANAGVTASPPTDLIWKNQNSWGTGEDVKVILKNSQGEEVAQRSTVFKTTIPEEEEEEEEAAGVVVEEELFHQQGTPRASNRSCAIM
UniProt O43791: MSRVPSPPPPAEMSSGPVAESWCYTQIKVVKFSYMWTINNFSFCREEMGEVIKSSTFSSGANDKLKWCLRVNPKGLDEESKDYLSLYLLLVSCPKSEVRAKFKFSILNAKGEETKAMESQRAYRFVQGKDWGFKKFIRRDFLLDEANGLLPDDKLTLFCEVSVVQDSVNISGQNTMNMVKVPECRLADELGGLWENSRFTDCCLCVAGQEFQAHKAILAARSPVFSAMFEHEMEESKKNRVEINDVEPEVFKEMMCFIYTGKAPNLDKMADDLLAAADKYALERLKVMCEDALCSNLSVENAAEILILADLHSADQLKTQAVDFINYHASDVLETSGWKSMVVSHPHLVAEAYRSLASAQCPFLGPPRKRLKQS
UniProt P08238: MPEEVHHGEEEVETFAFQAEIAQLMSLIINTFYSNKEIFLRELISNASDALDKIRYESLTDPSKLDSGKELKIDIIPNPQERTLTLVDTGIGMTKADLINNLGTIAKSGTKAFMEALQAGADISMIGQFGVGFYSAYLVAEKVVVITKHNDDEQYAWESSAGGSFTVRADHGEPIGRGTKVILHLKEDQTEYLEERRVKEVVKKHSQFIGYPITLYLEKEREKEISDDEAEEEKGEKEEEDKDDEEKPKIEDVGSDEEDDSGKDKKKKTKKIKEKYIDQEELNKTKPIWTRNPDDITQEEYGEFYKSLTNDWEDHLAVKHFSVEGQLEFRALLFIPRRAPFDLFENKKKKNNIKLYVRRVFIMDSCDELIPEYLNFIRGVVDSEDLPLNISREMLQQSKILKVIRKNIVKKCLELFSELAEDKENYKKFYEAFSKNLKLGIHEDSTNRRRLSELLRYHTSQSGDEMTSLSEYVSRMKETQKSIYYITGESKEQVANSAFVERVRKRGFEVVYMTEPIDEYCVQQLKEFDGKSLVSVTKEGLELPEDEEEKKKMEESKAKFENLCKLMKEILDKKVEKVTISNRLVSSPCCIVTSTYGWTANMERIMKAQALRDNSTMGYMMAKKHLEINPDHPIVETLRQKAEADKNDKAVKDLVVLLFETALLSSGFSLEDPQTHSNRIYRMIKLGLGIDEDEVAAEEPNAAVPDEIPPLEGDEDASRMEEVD

These are yes or no findings as the source states them, for the method shown. Binding seen in cells or lysates may run through a third protein. These calls come from enrichment with a bait or labelling near it, and not all partners need be listed.

The test deals with Flag-BCLAF1 (UniProt Q9NYF8). Kind of test: affinity purification with mass spectrometry; Flag-BCLAF1 exogenously expressed in and immunoprecipitated from HEK-293T cells; LC-MS/MS of the immunoprecipitate.
For the substance ALDH2 (from UniProt P05091 18-517), the binding entry is reported as “binds”.

LMNB1 (from UniProt P20700 1-586): the binding result is given as “binds”. Then “endogenous SPOP (HEK-293T cells) (from UniProt O43791 1-374)”, with “binds”; and HSP90AB1 (from UniProt P08238 1-724), with “binds”; and HSP90AA1 (from UniProt P07900 1-732), with “binds”.
